Data reported in PubChem BioAssay AID540256 (National Center for Advancing Translational Sciences (NCATS), 2011).
Among all 300,000 compounds or so, about 3,700 (1.2%) were called active. Inconclusive results, whose numbers are uncertain, are shown with a selection of clear calls. Calls come from the whole dose curve; tested in HEK293 cells. Potencies of inconclusive entries are doubtful fits and often do not repeat.
% is set by controls: 0 for no effect and ±100 for the full control effect; potency is the fitted concentration of half-maximal effect.

Experiment: qHTS for Inhibitors of binding or entry into cells for Lassa Virus; note: nearly all actives have a fitted effect of over 50% in size
Conditions: Lassa virus pseudotype entry inhibition, cell reporter; activity change, negative = inhibition: at 37.9 µM (top of the series) unless noted
With `COc1ccc(CCNC(=O)CN2C(=O)NC(c3ccccc3)(c3ccccc3)C2=O)cc1` the Potency was inconclusive: 20 µM [inhibitor, partial curve, poor fit]. For `CC(=O)CCS(=O)(=O)c1ccc(NC(C)=O)cc1`, the Potency was “inactive”. With `O=S(Cc1ccc(Br)cc1)Cc1nnc(SCc2c(Cl)cccc2Cl)n1-c1ccccc1` (configuration not stated) the Potency was inconclusive: 22.4 µM [inhibitor, single point]. With `Cc1ccc(S(=O)(=O)NCC(=O)NCC(=O)OCC(=O)N2CC(=O)Nc3ccccc32)cc1C` the Potency was “inactive”. With `CCOc1ccccc1NC(=O)Cn1ncc2c([nH]c3ccccc32)c1=O` the Potency was inconclusive: 35.5 µM [activator, single point]. For `CN(CC1CCCO1)S(=O)(=O)c1ccc(C(=O)Nc2nc(-c3ccccn3)cs2)cc1` (configuration not stated), the Potency was inconclusive: 20.6 µM [inhibitor, single point]. For `N#C/C(=C\c1ccc(O)cc1)c1nc2ccccc2o1`, the Potency was inconclusive: 14.1 µM [inhibitor, partial curve, poor fit]. With `CCCCNC(=O)CCn1c(=O)c2ccccc2n(CC(=O)Nc2ccccc2OCC)c1=O` the Potency was inconclusive: 2.24 µM [activator, partial curve, poor fit]. With `CCn1cc(CNC(=O)c2ccc(C)s2)cn1` the Potency was inconclusive: 2.82 µM [activator, partial curve, poor fit]. In the case of `CC1(C)Oc2c(ccc(O)c2CN2CCOCC2)C2=C1CCCC2`, the Potency is reported as “inactive”. With `C=CCn1c(C)cc(C(=O)COC(=O)c2ccc3c(c2)NC(=O)CS3)c1C` the Potency was inconclusive: 8.91 µM [inhibitor, partial curve]. With `COC(=O)c1ccc(N2CCN(C)CC2)c(NC(=O)COc2ccc(OC)cc2)c1` the Potency was inconclusive: 5.8 µM [inhibitor, single point]. For `CN(C)C(=O)Oc1c(Cl)cc(Cl)c2ccccc12`, the Potency was “inactive”. In the case of `O=C(COC(=O)c1c2c(nc3ccccc13)/C(=C/c1cccc([N+](=O)[O-])c1)CCC2)NC1CCS(=O)(=O)C1` (configuration not stated), the Potency is reported as inconclusive: 15.8 µM [inhibitor, single point]. For `NC(=O)c1cn(-c2ccccc2)nc1-c1cccnc1`, the Potency was “inactive”. In the case of `COc1ccc2c(c1)C(c1ccc(N(CCCl)CCCl)cc1)=NCC2`, the Potency is reported as inconclusive: 20 µM [inhibitor, partial curve, poor fit]. With `Cc1c(C(=O)N2CCOCC2)sc2nc(-c3ccccc3)cn12` the Potency was inconclusive: 3.16 µM [activator, partial curve, poor fit]. For `COc1ccc(C=O)cc1OS(=O)(=O)c1ccc(NC(C)=O)cc1`, the Potency was inconclusive: 16.4 µM [inhibitor, partial curve, poor fit]. With `Cc1sc(NC(=O)/C=C/c2ccc3c(c2)OCO3)nc1-c1ccccc1` the Potency was inconclusive: 35.5 µM [inhibitor, single point]. With `COc1ccc(CNC(=O)CN2C(=O)CSc3ccc(S(=O)(=O)N(C)C)cc32)cc1` the Potency was inconclusive: 3.98 µM [activator, single point]. For `CCOC(=O)c1c(C)[nH]c(C(=O)CSc2nnc(CC(C)c3ccccc3)o2)c1C` (configuration not stated), the Potency was inconclusive: 10.3 µM [inhibitor, partial curve]. For `O=C(CCC(=O)N/N=C/c1cc(Cl)cc(Cl)c1O)NCc1ccccc1`, the Potency was inconclusive: 11.2 µM [inhibitor, partial curve, poor fit]. For `COc1ccc(C(CC(=O)NCc2ccco2)c2ccc(F)cc2)cc1` (configuration not stated), the Potency was “inactive”. For `COc1ccc(/C=N/Nc2ncnc3sc4c(c23)CCCC4)cc1O`, the Potency was inconclusive: 32.6 µM [inhibitor, partial curve, poor fit]. For `O=C(NC1CCCCCC1)C1c2ccccc2C(=O)N1Cc1ccc(F)cc1` (configuration not stated), the Potency was inconclusive: 15.8 µM [inhibitor, single point]. With `CN(C)Cc1nc2ccccc2c(=O)n1Cc1nc(-c2cccc([N+](=O)[O-])c2)cs1` the Potency was inconclusive: 8.91 µM [inhibitor, partial curve, poor fit]. In the case of `COc1ccc2c(c1OC)C(=O)N(c1ccccc1)C2=O`, the Potency is reported as inconclusive: 11.2 µM [activator, partial curve, poor fit]. In the case of `CCOc1ccc(C(=O)NC(=S)Nc2ccc(NC(=O)c3ccco3)cc2)cc1[N+](=O)[O-]`, the Potency is reported as “inactive”. For `O=C(c1ccc2c(c1)OCO2)C1CCCN(C(=O)NCc2ccccc2)C1` (configuration not stated), the activity change, negative = inhibition was inconclusive: 35.3% [activator] [at 46.1 µM]. For `COc1cccc(C2c3c(C)nn(-c4ccc([N+](=O)[O-])cc4)c3N=C3C(=O)Nc4ccccc4N32)c1` (configuration not stated), the Potency was inconclusive: 12.6 µM [inhibitor, partial curve, poor fit]. For `NCC(c1ccccc1)(c1ccccc1)c1ccccc1`, the Potency was “inactive”. In the case of `COC1=C/C(=C/c2c(N)n3cc(C)sc3nc2=O)C=CC1=O`, the Potency is reported as inconclusive: 29.1 µM [activator, single point]. With `NC(=O)COC(=O)CC12CC3CC(CC(Br)(C3)C1)C2` the Potency was “inactive”. With `N#CCCN1CCN(C(=S)c2ccc(-c3cccc(Cl)c3)o2)CC1` the Potency was “inactive”. For `CC(=O)Nc1ccc(S(=O)(=O)NCC2CCC(C(=O)NC3CCCCCC3)CC2)cc1` (configuration not stated), the Potency was inconclusive: 8.91 µM [inhibitor, partial curve]. For `CC1CCN(S(=O)(=O)c2cc3c4c(c2)C(C)C(=O)N4CCC3)CC1` (configuration not stated), the Potency was “inactive”. With `Cc1cccc(N2C(=O)CSC23C(=O)N(CC(=O)Nc2cccc(Cl)c2)c2ccccc23)c1` (configuration not stated) the Potency was inconclusive: 31.6 µM [inhibitor, single point]. With `CCNC(=S)NNc1nncc2ccccc12` the Potency was “inactive”. With `CCc1ccccc1Nc1ncnc2ccccc12` the Potency was inconclusive: 35.5 µM [inhibitor, single point]. With `O=C(N/N=C/c1ccc2c(c1)OCO2)c1ccc(Br)o1` the Potency was inconclusive: 35.5 µM [inhibitor, single point]. In the case of `CCOc1ccc(N2CC(c3nc4ccccc4n3CCCCOc3ccc(OC)cc3)CC2=O)cc1` (configuration not stated), the Potency is reported as inconclusive: 20 µM [inhibitor, single point]. With `Cc1cc(=O)n2nc(N3CCC(C(=O)Nc4c(C)cccc4C)CC3)sc2n1` the Potency was “inactive”. For `CN1CCC(N2CCN(C3CN(C4CCCC4)S(=O)(=O)C3)CC2)CC1` (configuration not stated), the Potency was “inactive”. For `CCCn1c(C)cc(C(=O)COc2ncnc3sccc23)c1C`, the Potency was inconclusive: 11.6 µM [inhibitor, partial curve, poor fit]. In the case of `Cc1noc(C)c1CN1C(=O)NC2(CCCCCCC2)C1=O`, the Potency is reported as inconclusive: 4.47 µM [activator, partial curve, poor fit]. For `COc1ccc(NC(=O)COc2ccc(N(C)S(=O)(=O)c3ccc(Cl)cc3)cc2)cc1OC`, the Potency was inconclusive: 10 µM [inhibitor, partial curve, poor fit]. With `O=S(=O)([N-]c1nc2ccccc2nc1-n1cc[n+](Cc2ccccc2)c1)c1ccc(Br)cc1` the Potency was inconclusive: 2.51 µM [activator, full curve]. In the case of `COc1ccnc(Oc2ccc3ccccc3c2)c1C#N`, the Potency is reported as “inactive”. For `CCC1(C)Cc2c(sc3nnn(Cc4ccccc4Cl)c(=O)c23)CO1` (configuration not stated), the Potency was inconclusive: 25.9 µM [inhibitor, single point]. For `Cc1nc2c(c3c1[nH]c1ccccc13)C(O)CC(C)(C)C2` (configuration not stated), the Potency was inconclusive: 18.4 µM [inhibitor, single point]. For `COC(=O)CSc1nnc(Cc2cc(=O)[nH]c(=O)[nH]2)n1-c1cccc(OC)c1`, the Potency was inconclusive: 6.51 µM [inhibitor, partial curve, poor fit]. In the case of `CCN(CC)C(=O)Cn1c(=O)c2ccccc2n2c(=S)sc(-c3cccc(C)c3)c12`, the Potency is reported as “inactive”. In the case of `Cc1c(C(=O)NCc2cccs2)oc2ccccc12`, the Potency is reported as “inactive”. For `Cc1cc(/C=C2\C(=N)N3N=C(c4ccco4)SC3=NC2=O)c(C)n1Cc1ccccc1`, the Potency was inconclusive: 5.62 µM [activator, full curve, poor fit]. In the case of `COc1ccc(/C=N/OCC(=O)NC(c2ccccc2)c2ccccc2)cc1OC`, the Potency is reported as inconclusive: 14.6 µM [inhibitor, single point]. For `Cn1c(=N)n(CC(=O)c2ccc(Br)cc2)c2ccccc21`, the Potency was active: 10 µM. In the case of `O=C(Nc1cccc(F)c1)N1CC=C(c2ccc(Cl)cc2)CC1`, the Potency is reported as “inactive”. For `CCN(CC)S(=O)(=O)c1ccc(C)c(NCC(=O)Nc2ccc(C#N)c(Cl)c2)c1`, the Potency was inconclusive: 10 µM [inhibitor, partial curve, poor fit]. For `O=C(c1cc([N+](=O)[O-])ccc1N1CCCC1)N1CCCC1`, the Potency was “inactive”. In the case of `Cc1cc(C)cc(NC(=O)c2sc3nc4n(c(=O)c3c2C)N=C(c2ccccc2)CS4)c1`, the Potency is reported as “inactive”. With `COc1cc2c(cc1OC)C(c1ccc(-c3cc(Cl)ccc3Cl)o1)=NCC2` the Potency was inconclusive: 6.31 µM [inhibitor, full curve, poor fit]. In the case of `CC(=O)Nc1sc2c(c1C(c1cccs1)N1CCOCC1)CCCC2` (configuration not stated), the Potency is reported as inconclusive: 35.5 µM [inhibitor, single point]. For `CCCc1ccc(OCCNC(=O)CC)cc1`, the Potency was inconclusive: 4.11 µM [activator, full curve]. For `CS(=O)(=O)c1ccc(Sc2nc3ccccc3s2)c([N+](=O)[O-])c1`, the Potency was inconclusive: 5.62 µM [inhibitor, full curve]. For `COc1ccccc1NC(=O)NC1(C(=O)N2CCC(C)CC2)CCCCC1`, the Potency was inconclusive: 0.398 µM [inhibitor, partial curve, poor fit]. For `COc1ccc(N/C(=C/[N+](=O)[O-])SC)cc1`, the Potency was inconclusive: 5.01 µM [inhibitor, single point]. In the case of `COc1cc2c(cc1OC)C(c1ccccc1OC(C)C)CC(=O)N2` (configuration not stated), the Potency is reported as inconclusive: 10 µM [inhibitor, partial curve, poor fit].
